{"source": "the supplement of paper PMC8728848", "experiment_in_all_cases": "glycan array binding signal (z-score within array); higher = stronger binding", "settings_in_all_cases": "glycan notation: IUPAC condensed, linker removed", "key": {"[1]": {"target": "Fuc(a1-3)[Gal(b1-4)]GlcNAc(b1-3)Gal(b1-3)[Fuc(a1-4)]GlcNAc", "how_it_was_run": "(§1)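 Arrays were curated from the Consortium for Functional Glycomics database, 3228 in total, and kept only where the protein sequence was available. Binding is expressed as a within-array Z-score. This score was averaged across arrays of the same protein sequence at different concentrations or buffers and across linkers, and negative values can be read as non-binding.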"}, "[2]": {"target": "Fuc(a1-3)[Gal(b1-4)]GlcNAc(b1-3)Gal(b1-4)[Fuc(a1-3)]GlcNAc", "how_it_was_run": "as §1"}, "[3]": {"target": "Fuc(a1-3)[Gal(b1-4)]GlcNAc(b1-3)Gal(b1-4)[Fuc(a1-3)]GlcNAc(b1-3)Gal(b1-4)[Fuc(a1-3)]GlcNAc", "how_it_was_run": "as §1"}, "[4]": {"target": "Fuc(a1-3)[Gal(b1-4)]GlcNAc(b1-3)GalNAc", "how_it_was_run": "as §1"}, "[5]": {"target": "Fuc(a1-3)[Gal(b1-4)]GlcNAc(b1-6)GalNAc", "how_it_was_run": "as §1"}, "[6]": {"target": "Fuc(a1-3)[Gal(b1-4)]GlcNAc(b1-6)[Gal(b1-3)GlcNAc(b1-3)]Gal(b1-4)Glc", "how_it_was_run": "as §1"}, "[7]": {"target": "Fuc(a1-3)[Gal(b1-4)]GlcNAc6S", "how_it_was_run": "as §1"}, "[8]": {"target": "Fuc(a1-3)[Gal3S(b1-4)]Glc", "how_it_was_run": "as §1"}, "[9]": {"target": "Fuc(a1-3)[Gal3S(b1-4)]GlcNAc", "how_it_was_run": "as §1"}, "[10]": {"target": "Fuc(a1-3)[Gal3S(b1-4)]GlcNAc6S", "how_it_was_run": "as §1"}, "[11]": {"target": "Fuc(a1-3)[GalNAc(b1-4)]GlcNAc", "how_it_was_run": "as §1"}, "[12]": {"target": "Fuc(a1-3)[GalNAc(b1-4)]GlcNAc6S", "how_it_was_run": "as §1"}, "Fuc(a1-4)GlcNAc": {"target": "Fuc(a1-4)GlcNAc", "how_it_was_run": "as §1"}, "Fuc(b1-3)GlcNAc": {"target": "Fuc(b1-3)GlcNAc", "how_it_was_run": "as §1"}, "Gal(a1-2)Gal": {"target": "Gal(a1-2)Gal", "how_it_was_run": "as §1"}, "Gal(a1-3)Gal": {"target": "Gal(a1-3)Gal", "how_it_was_run": "as §1"}, "Gal(a1-3)Gal(b1-3)GlcNAc": {"target": "Gal(a1-3)Gal(b1-3)GlcNAc", "how_it_was_run": "as §1"}, "[13]": {"target": "Gal(a1-3)Gal(b1-3)GlcNAc(b1-2)Man", "how_it_was_run": "as §1"}, "[14]": {"target": "Gal(a1-3)Gal(b1-3)GlcNAc(b1-2)Man(a1-3)[Gal(a1-3)Gal(b1-3)GlcNAc(b1-2)Man(a1-6)]Man(b1-4)GlcNAc(b1-4)GlcNAc", "how_it_was_run": "as §1"}, "[15]": {"target": "Gal(a1-3)Gal(b1-3)GlcNAc(b1-3)GalNAc", "how_it_was_run": "as §1"}, "[16]": {"target": "Gal(a1-3)Gal(b1-3)GlcNAc(b1-6)GalNAc", "how_it_was_run": "as §1"}, "[17]": {"target": "Gal(a1-3)Gal(b1-3)[Fuc(a1-4)]GlcNAc(b1-2)Man(a1-3)[Gal(a1-3)Gal(b1-3)[Fuc(a1-4)]GlcNAc(b1-2)Man(a1-6)]Man(b1-4)GlcNAc(b1-4)GlcNAc", "how_it_was_run": "as §1"}, "Gal(a1-3)Gal(b1-4)Glc": {"target": "Gal(a1-3)Gal(b1-4)Glc", "how_it_was_run": "as §1"}, "Gal(a1-3)Gal(b1-4)GlcNAc": {"target": "Gal(a1-3)Gal(b1-4)GlcNAc", "how_it_was_run": "as §1"}, "[18]": {"target": "Gal(a1-3)Gal(b1-4)GlcNAc(b1-2)Man", "how_it_was_run": "as §1"}, "[19]": {"target": "Gal(a1-3)Gal(b1-4)GlcNAc(b1-2)Man(a1-3)[Gal(a1-3)Gal(b1-4)GlcNAc(b1-2)Man(a1-6)]Man(b1-4)GlcNAc(b1-4)GlcNAc", "how_it_was_run": "as §1"}, "[20]": {"target": "Gal(a1-3)Gal(b1-4)GlcNAc(b1-3)GalNAc", "how_it_was_run": "as §1"}, "[21]": {"target": "Gal(a1-3)Gal(b1-4)GlcNAc(b1-6)GalNAc", "how_it_was_run": "as §1"}, "[22]": {"target": "Gal(a1-3)Gal(b1-4)[Fuc(a1-3)]GlcNAc", "how_it_was_run": "as §1"}, "[23]": {"target": "Gal(a1-3)Gal(b1-4)[Fuc(a1-3)]GlcNAc(b1-2)Man(a1-3)[Gal(a1-3)Gal(b1-4)[Fuc(a1-3)]GlcNAc(b1-2)Man(a1-6)]Man(b1-4)GlcNAc(b1-4)GlcNAc", "how_it_was_run": "as §1"}, "Gal(a1-3)GalNAc": {"target": "Gal(a1-3)GalNAc", "how_it_was_run": "as §1"}, "[24]": {"target": "Gal(a1-3)[Gal(a1-4)]Gal(b1-4)GlcNAc", "how_it_was_run": "as §1"}, "[25]": {"target": "Gal(a1-4)Gal(b1-3)GlcNAc(b1-2)Man(a1-3)[Gal(a1-4)Gal(b1-3)GlcNAc(b1-2)Man(a1-6)]Man(b1-4)GlcNAc(b1-4)GlcNAc", "how_it_was_run": "as §1"}, "Gal(a1-4)Gal(b1-4)Glc": {"target": "Gal(a1-4)Gal(b1-4)Glc", "how_it_was_run": "as §1"}, "Gal(a1-4)Gal(b1-4)GlcNAc": {"target": "Gal(a1-4)Gal(b1-4)GlcNAc", "how_it_was_run": "as §1"}, "[26]": {"target": "Gal(a1-4)Gal(b1-4)GlcNAc(b1-2)Man(a1-3)[Gal(a1-4)Gal(b1-4)GlcNAc(b1-2)Man(a1-6)]Man(b1-4)GlcNAc(b1-4)GlcNAc", "how_it_was_run": "as §1"}, "[27]": {"target": "Gal(a1-4)Gal(b1-4)GlcNAc(b1-3)Gal(b1-4)Glc", "how_it_was_run": "as §1"}, "Gal(a1-4)GlcNAc": {"target": "Gal(a1-4)GlcNAc", "how_it_was_run": "as §1"}}, "note": "The other results are listed elsewhere or left out."}
{"binder": "SUN4 (Saccharomyces cerevisiae), P53616 (protein) MGSSHHHHHHSSGLVPRGSHNGSIYGDLADFSGPYEKFEDGTIPCGQFPSGQGVIPISWLDEGGWSGVENTDTSTGGSCKEGSYCSYACQPGMSKTQWPSDQPSDGRSIGGLLCKDGYLYRSNTDTDYLCEWGVDAAYVVSELSNDVAICRTDYPGTENMVIPTYVQAGDSLPLTVVDQDTYYTWQGLKTSAQYYVNNAGISVEDACVWGSSSSGVGNWAPLNFGAGSSDGVAYLSLIPNPNNGNALNFNVKIVAADDSSTVNGECIYENGSFSGGSDGCTVSVTAGKAKFVLYN", "values": [{"measurement": "glycan array binding signal (z-score)", "setting": "[1]", "value": 0.681}, {"measurement": "glycan array binding signal (z-score)", "setting": "[2]", "value": 0.919}, {"measurement": "glycan array binding signal (z-score)", "setting": "[3]", "value": -0.338}, {"measurement": "glycan array binding signal (z-score)", "setting": "[4]", "value": 0.304}, {"measurement": "glycan array binding signal (z-score)", "setting": "[5]", "value": -0.013}, {"measurement": "glycan array binding signal (z-score)", "setting": "[6]", "value": -0.881}, {"measurement": "glycan array binding signal (z-score)", "setting": "[7]", "value": 0.374}, {"measurement": "glycan array binding signal (z-score)", "setting": "[8]", "value": 0.168}, {"measurement": "glycan array binding signal (z-score)", "setting": "[9]", "value": -0.344}, {"measurement": "glycan array binding signal (z-score)", "setting": "[10]", "value": 0.473}, {"measurement": "glycan array binding signal (z-score)", "setting": "[11]", "value": -0.152}, {"measurement": "glycan array binding signal (z-score)", "setting": "[12]", "value": -0.713}, {"measurement": "glycan array binding signal (z-score)", "setting": "Fuc(a1-4)GlcNAc", "value": -0.729}, {"measurement": "glycan array binding signal (z-score)", "setting": "Fuc(b1-3)GlcNAc", "value": 0.224}, {"measurement": "glycan array binding signal (z-score)", "setting": "Gal(a1-2)Gal", "value": 0.325}, {"measurement": "glycan array binding signal (z-score)", "setting": "Gal(a1-3)Gal", "value": -0.684}, {"measurement": "glycan array binding signal (z-score)", "setting": "Gal(a1-3)Gal(b1-3)GlcNAc", "value": -0.29}, {"measurement": "glycan array binding signal (z-score)", "setting": "[13]", "value": 1.08}, {"measurement": "glycan array binding signal (z-score)", "setting": "[14]", "value": 1.63}, {"measurement": "glycan array binding signal (z-score)", "setting": "[15]", "value": 0.338}, {"measurement": "glycan array binding signal (z-score)", "setting": "[16]", "value": 0.361}, {"measurement": "glycan array binding signal (z-score)", "setting": "[17]", "value": 1.91}, {"measurement": "glycan array binding signal (z-score)", "setting": "Gal(a1-3)Gal(b1-4)Glc", "value": -0.816}, {"measurement": "glycan array binding signal (z-score)", "setting": "Gal(a1-3)Gal(b1-4)GlcNAc", "value": -1.3}, {"measurement": "glycan array binding signal (z-score)", "setting": "[18]", "value": -0.924}, {"measurement": "glycan array binding signal (z-score)", "setting": "[19]", "value": -0.15}, {"measurement": "glycan array binding signal (z-score)", "setting": "[20]", "value": -0.15}, {"measurement": "glycan array binding signal (z-score)", "setting": "[21]", "value": 0.348}, {"measurement": "glycan array binding signal (z-score)", "setting": "[22]", "value": -1.48}, {"measurement": "glycan array binding signal (z-score)", "setting": "[23]", "value": 3.09}, {"measurement": "glycan array binding signal (z-score)", "setting": "Gal(a1-3)GalNAc", "value": 0.121}, {"measurement": "glycan array binding signal (z-score)", "setting": "[24]", "value": 0.945}, {"measurement": "glycan array binding signal (z-score)", "setting": "[25]", "value": -0.153}, {"measurement": "glycan array binding signal (z-score)", "setting": "Gal(a1-4)Gal(b1-4)Glc", "value": 0.787}, {"measurement": "glycan array binding signal (z-score)", "setting": "Gal(a1-4)Gal(b1-4)GlcNAc", "value": -0.358}, {"measurement": "glycan array binding signal (z-score)", "setting": "[26]", "value": 1.4}, {"measurement": "glycan array binding signal (z-score)", "setting": "[27]", "value": -0.077}, {"measurement": "glycan array binding signal (z-score)", "setting": "Gal(a1-4)GlcNAc", "value": -0.933}]}
